Experimental data from paper PMC3962104.
No constants are given. Whether binding was seen depends on the method and setting. Some results given as binding are weak or reduced against the parent protein; the word gives no strength. Tags and fused reporters may be left off the sequences shown.

Target: T1, S. cerevisiae Ump1, C-terminally 6His-tagged (wild type) (S. cerevisiae), P38293
T1 chain: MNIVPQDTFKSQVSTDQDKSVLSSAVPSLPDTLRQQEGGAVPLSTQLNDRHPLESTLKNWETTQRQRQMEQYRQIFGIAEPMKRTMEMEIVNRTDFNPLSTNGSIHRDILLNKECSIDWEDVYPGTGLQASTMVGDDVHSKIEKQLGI
Test: SEC; Superdex 75, 50 mM Tris pH 7.5, 100 mM NaCl; calibrated with aprotinin, ribonuclease A, chymotrypsinogen and ovalbumin; apparent molecular masses; both purified
Conditions: remark: other sources report otherwise

binding: binds
B1: S. cerevisiae Ump1, C-terminally 6His-tagged (wild type), P38293 1-148 (natural protein)
chain: MNIVPQDTFKSQVSTDQDKSVLSSAVPSLPDTLRQQEGGAVPLSTQLNDRHPLESTLKNWETTQRQRQMEQYRQIFGIAEPMKRTMEMEIVNRTDFNPLSTNGSIHRDILLNKECSIDWEDVYPGTGLQASTMVGDDVHSKIEKQLGI
